# Reference: publication PMC4381594
# Chains of the proteins cited; added tags and fusions are not shown. Lines headed by an entry give the natural chain unless they say otherwise; changes in a name come on top.
# UniProt P17861: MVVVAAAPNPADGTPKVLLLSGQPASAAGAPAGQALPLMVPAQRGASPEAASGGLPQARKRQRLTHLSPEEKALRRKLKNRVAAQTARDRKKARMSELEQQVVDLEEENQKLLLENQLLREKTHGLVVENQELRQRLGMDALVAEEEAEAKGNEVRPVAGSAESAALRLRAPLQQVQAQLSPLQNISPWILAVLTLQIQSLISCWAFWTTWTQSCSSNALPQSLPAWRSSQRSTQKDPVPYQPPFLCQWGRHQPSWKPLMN
# UniProt Q92830: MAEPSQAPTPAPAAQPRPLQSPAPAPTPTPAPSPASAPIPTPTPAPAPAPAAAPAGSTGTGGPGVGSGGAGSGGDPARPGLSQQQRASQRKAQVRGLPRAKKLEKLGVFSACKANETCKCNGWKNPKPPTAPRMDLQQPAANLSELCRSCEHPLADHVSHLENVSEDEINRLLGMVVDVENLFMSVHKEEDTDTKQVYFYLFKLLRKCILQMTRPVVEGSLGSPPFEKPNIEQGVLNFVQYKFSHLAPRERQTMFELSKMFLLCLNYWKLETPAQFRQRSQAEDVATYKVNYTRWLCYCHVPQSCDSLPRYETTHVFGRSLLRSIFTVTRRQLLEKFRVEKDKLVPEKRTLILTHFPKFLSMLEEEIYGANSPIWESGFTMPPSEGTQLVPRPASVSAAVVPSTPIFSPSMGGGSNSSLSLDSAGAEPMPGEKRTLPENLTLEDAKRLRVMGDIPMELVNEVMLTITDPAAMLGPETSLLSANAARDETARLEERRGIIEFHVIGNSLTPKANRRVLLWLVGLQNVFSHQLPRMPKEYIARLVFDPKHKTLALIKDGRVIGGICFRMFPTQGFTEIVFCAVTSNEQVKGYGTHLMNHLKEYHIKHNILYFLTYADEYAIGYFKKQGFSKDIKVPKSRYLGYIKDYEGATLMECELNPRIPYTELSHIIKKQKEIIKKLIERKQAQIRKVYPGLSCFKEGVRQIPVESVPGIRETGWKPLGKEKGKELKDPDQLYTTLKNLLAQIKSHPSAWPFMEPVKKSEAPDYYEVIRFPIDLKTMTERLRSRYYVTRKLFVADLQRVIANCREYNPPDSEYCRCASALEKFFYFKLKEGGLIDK
# These are yes or no findings as the source states them, for the method shown. In cells and extracts the contact can be indirect. Binding calls can cover weak binding; strength is not graded here.
# Target: XBP-1S-K16R mutant (HA-tagged) (human) (UniProt P17861)
# Assay: co-IP; lysates of cells co-transfected with GCN5 and HA-tagged XBP-1S WT or K16R; IP with anti-HA antibody, immunoblot with anti-GCN5
substance,measurement,value
general control nonderepressible 5 (GCN5) (from UniProt Q92830 1-837) (enzyme),binding,binds
